We go through four molecules from publication PMC11093223, “Cargo selective vesicle tethering: The structural basis for binding of specific cargo proteins by the Golgi tether component TBC1D23” (Science Advances, 2024).

Results are given in words; binding and its absence hold for the method and conditions named. Binding seen in cells or lysates may run through a third protein. Here binding means that the protein was enriched with, or labelled near, the bait; the list need not be complete. For some of these results: Tags and fused reporters may be left off the sequences shown.

Assay [1] deals with GST-TBC1D23 (559 to 684) (mouse) (UniProt Q8K0F1). The assay can be described thus: affinity purification with mass spectrometry; GST-tagged bait (GST-CPD tail, GST-CIMPR tail, GST-TBC1D23 (559 to 684) or GST) on glutathione-Sepharose beads, 2 to 4 h at 4°C with precleared 293T cell lysate (50 mM tris pH 7.4, 150 mM NaCl, 1 mM EDTA, 5 mM 2-mercaptoethanol, 1% Triton X-100), elution with 1.5 M NaCl, MS; only the target ….

Assay [2] concerns the target T1, GST-TBC1D23 (514 to 684) (mouse) (UniProt Q8K0F1).
T1 sequence: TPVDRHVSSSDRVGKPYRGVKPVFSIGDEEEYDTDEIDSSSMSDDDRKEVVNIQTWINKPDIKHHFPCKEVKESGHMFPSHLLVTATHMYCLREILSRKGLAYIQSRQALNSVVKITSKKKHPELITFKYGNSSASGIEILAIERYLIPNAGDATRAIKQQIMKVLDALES
Briefly: affinity purification with mass spectrometry; GST-TBC1D23 (1 to 513) or (514 to 684) on glutathione-Sepharose beads, 2 h with precleared 293T cell lysate (25 mM tris-HCl pH 7.4, 150 mM NaCl, 1 mM EDTA, 1% Triton X-100), elution with 1.5 M NaCl, MS; only the target purified.

For assay [3], the target named is T2, GST-TBC1D23 (1 to 513) (mouse) (UniProt Q8K0F1).
T2 sequence: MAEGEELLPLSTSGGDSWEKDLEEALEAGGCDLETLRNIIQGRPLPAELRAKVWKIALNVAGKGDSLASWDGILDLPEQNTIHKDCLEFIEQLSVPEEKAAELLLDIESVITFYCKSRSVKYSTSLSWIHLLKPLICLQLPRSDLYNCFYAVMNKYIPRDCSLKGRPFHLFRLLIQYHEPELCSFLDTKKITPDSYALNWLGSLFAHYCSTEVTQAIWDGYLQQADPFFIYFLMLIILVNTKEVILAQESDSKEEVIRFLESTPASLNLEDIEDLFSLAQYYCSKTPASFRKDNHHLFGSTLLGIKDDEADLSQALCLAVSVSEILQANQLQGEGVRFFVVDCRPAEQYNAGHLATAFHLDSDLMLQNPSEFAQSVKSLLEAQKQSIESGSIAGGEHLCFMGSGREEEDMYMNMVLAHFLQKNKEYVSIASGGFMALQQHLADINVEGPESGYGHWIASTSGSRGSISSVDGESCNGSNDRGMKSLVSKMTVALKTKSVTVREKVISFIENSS
Described as above.

B1: Sec1/Munc18-family protein VPS45 (endogenous, 293T cell lysate) (protein, UniProt Q9NRW7 1-570)
chain: MNVVFAVKQYISKMIEDSGPGMKVLLMDKETTGIVSMVYTQSEILQKEVYLFERIDSQNREIMKHLKAICFLRPTKENVDYIIQELRRPKYTIYFIYFSNVISKSDVKSLAEADEQEVVAEVQEFYGDYIAVNPHLFSLNILGCCQGRNWDPAQLSRTTQGLTALLLSLKKCPMIRYQLSSEAAKRLAECVKQVITKEYELFEFRRTEVPPLLLILDRCDDAITPLLNQWTYQAMVHELLGINNNRIDLSRVPGISKDLREVVLSAENDEFYANNMYLNFAEIGSNIKNLMEDFQKKKPKEQQKLESIADMKAFVENYPQFKKMSGTVSKHVTVVGELSRLVSERNLLEVSEVEQELACQNDHSSALQNIKRLLQNPKVTEFDAARLVMLYALHYERHSSNSLPGLMMDLRNKGVSEKYRKLVSAVVEYGGKRVRGSDLFSPKDAVAITKQFLKGLKGVENVYTQHQPFLHETLDHLIKGRLKENLYPYLGPSTLRDRPQDIIVFVIGGATYEEALTVYNLNRTTPGVRIVLGGTTVHNTKSFLEEVLASGLHSRSKESSQVTSRSASRR
Consider B1, for which, in assay [1], the binding result is given as “binds”.

B2: C17orf75 (endogenous, 293T cell lysate) (protein, UniProt Q9HAS0 1-396)
chain: MLPSLQESMDGDEKELESSEEGGSAEERRLEPPSSSHYCLYSYRGSRLAQQRGDSEDGSPSGTNAETPSGDDFSLSLADTNLPSEVEPELRSFIAKRLSRGAVFEGLGNVASVELKIPGYRVGCYYCLFQNEKLLPETVTIDSERNPSEYVVCFLGGSEKGLELFRLELDKYIQGLKNNMNCEARGLESHIKSYLSSWFEDVVCPIQRVVLLFQEKLTFLLHAALSYTPVEVKESDEKTKRDINRFLSVASLQGLIHEGTMTSLCMAMTEEQHKSVVIDCSSSQPQFCNAGSNRFCEDWMQAFLNGAKGGNPFLFRQVLENFKLKAIQDTNNLKRFIRQAEMNHYALFKCYMFLKNCGSGDILLKIVKVEHEEMPEAKNVIAVLEEFMKEALDQSF
With B2, in assay [2], the binding result is “binds”.

B3: golgin-97 (endogenous, 293T cell lysate) (protein, UniProt Q92805 1-767)
chain: MFAKLKKKIAEETAVAQRPGGATRIPRSVSKESVASMGADSGDDFASDGSSSREDLSSQLLRRNEQIRKLEARLSDYAEQVRNLQKIKEKLEIALEKHQDSSMRKFQEQNETFQANRAKMAEGLALALARKDQEWSEKMDQLEKEKNILTAQLQEMKNQSMNLFQRRDEMDELEGFQQQELSKIKHMLLKKEESLGKMEQELEARTRELSRTQEELMNSNQMSSDLSQKLEELQRHYSTLEEQRDHVIASKTGAESKITALEQKEQELQALIQQLSIDLQKVTAETQEKEDVITHLQEKVASLEKRLEQNLSGEEHLQELLKEKTLAEQNLEDTRQQLLAARSSQAKAINTLETRVRELEQTLQASEEQLQQSKGIVAAQETQIQELAAANQESSHVQQQALALEQQFLERTQALEAQIVALERTRAADQTTAEQGMRQLEQENAALKECRNEYERSLQNHQFELKKLKEEWSQREIVSVAMAQALEEVRKQREEFQQQAANLTAIIDEKEQNLREKTEVLLQKEQEILQLERGHNSALLQIHQLQAELEALRTLKAEEAAVVAEQEDLLRLRGPLQAEALSVNESHVTSRAMQDPVFQLPTAGRTPNGEVGAMDLTQLQKEKQDLEQQLLEKNKTIKQMQQRMLELRKTLQKELKIRPDNELFEVREKPGPEMANMAPSVTNNTDLTDAREINFEYLKHVVLKFMSCRESEAFHLIKAVSVLLNFSQEEENMLKETLEYKMSWFGSKPAPKGSIRPSISNPRIPWS
For B3, in assay [3], the binding entry is listed as “binds”.

B4: WDR11 (endogenous, 293T cell lysate) (protein, UniProt Q9BZH6 1-1224)
chain: MLPYTVNFKVSARTLTGALNAHNKAAVDWGWQGLIAYGCHSLVVVIDSITAQTLQVLEKHKADVVKVKWARENYHHNIGSPYCLRLASADVNGKIIVWDVAAGVAQCEIQEHAKPIQDVQWLWNQDASRDLLLAIHPPNYIVLWNADTGTKLWKKSYADNILSFSFDPFDPSHLTLLTSEGIVFISDFSPSKPPSGPGKKVYISSPHSSPAHNKLATATGAKKALNKVKILITQEKPSAEFITLNDCLQLAYLPSKRNHMLLLYPREILILDLEVNQTVGVIAIERTGVPFLQVIPCFQRDGLFCLHENGCITLRVRRSYNNIFTTSNEEPDPDPVQELTYDLRSQCDAIRVTKTVRPFSMVCCPVNENAAALVVSDGRVMIWELKSAVCNRNSRNSSSGVSPLYSPVSFCGIPVGVLQNKLPDLSLDNMIGQSAIAGEEHPRGSILREVHLKFLLTGLLSGLPAPQFAIRMCPPLTTKNIKMYQPLLAVGTSNGSVLVYHLTSGLLHKELSIHSCEVKGIEWTSLTSFLSFATSTPNNMGLVRNELQLVDLPTGRSIAFRGERGNDESAIEMIKVSHLKQYLAVVFRDKPLELWDVRTCTLLREMSKNFPTITALEWSPSHNLKSLRKKQLATREAMARQTVVSDTELSIVESSVISLLQEAESKSELSQNISAREHFVFTDIDGQVYHLTVEGNSVKDSARIPPDGSMGSITCIAWKGDTLVLGDMDGNLNFWDLKGRVSRGIPTHRSWVRKIRFAPGKGNQKLIAMYNDGAEVWDTKEVQMVSSLRSGRNVTFRILDVDWCTSDKVILASDDGCIRVLEMSMKSACFRMDEQELTEPVWCPYLLVPRASLALKAFLLHQPWNGQYSLDISHVDYPENEEIKNLLQEQLNSLSNDIKKLLLDPEFTLLQRCLLVSRLYGDESELHFWTVAAHYLHSLSQEKSASTTAPKEAAPRDKLSNPLDICYDVLCENAYFQKFQLERVNLQEVKRSTYDHTRKCTDQLLLLGQTDRAVQLLLETSADNQHYYCDSLKACLVTTVTSSGPSQSTIKLVATNMIANGKLAEGVQLLCLIDKAADACRYLQTYGEWNRAAWLAKVRLNPEECADVLRRWVDHLCSPQVNQKSKALLVLLSLGCFFSVAETLHSMRYFDRAALFVEACLKYGAFEVTEDTEKLITAIYADYARSLKNLGFKQGAVLFASKAGAAGKDLLNELESPKEEPIEE
Take B4: the binding result in assay [2] is listed as “binds”.
